Experimental data from PubChem BioAssay AID330 (DTP/NCI, 2004).
The list shows only some results of the screen, not a fair sample: it gathers tests that were run many times, whatever their T/C, doses with no T/C, and many T/C values between a quarter and a half above the control. Further doses and runs are listed elsewhere. T/C: endpoint of the treated group in % of that of the vehicle group. Some entries give survivors of the animals treated and no T/C: the source files T/C as zero there, which appears to mark a toxic dose or a test without result, not a measured value. Some survivor counts are full or nearly so, which does not show that the dose was tolerated: the source hardly ever lists a survival T/C far under the control, and the zero likely stands for such cases as well. Survivors were counted at the toxicity check, usually on the fifth day, unless a day is given; later deaths do not show. Schedule codes are those of the source, read here as Q, the interval in days (D) or hours (H), X, the number of doses. Brackets with × count equal records among those shown. Some entries hold several experiments; their values stand side by side, smallest first. Some molecules as drawn cover several salts, stereoisomers or complexes of the source; a dose is that of the sample tested. For survival time, this PubChem deposit counts one and a half times the control or more as active, and values a quarter to a half above the control carry no call in these data; other NCI protocols may use other cut-offs. Some T/C values are followed by the survivors on the day toxicity was checked, most often the fifth; where none is given, no animal had died by that day.

Tested on: P388 leukemia ip, CD2F1 mice, survival T/C
Assay: NCI In Vivo Anticancer Drug Screen. Data for tumor model P388 Leukemia (intraperitoneal) in CD2F1 (CDF1) mice
Conditions: T/C endpoint: median survival time, higher T/C = longer survival
[1] = dose: 50.0 mg/kg/injection, schedule: Q01DX009 (ip), vehicle: saline
[2] = dose: 100.0 mg/kg/injection, schedule: Q01DX009 (ip), vehicle: saline
[3] = dose: 200.0 mg/kg/injection, schedule: Q01DX009 (ip), vehicle: saline
[4] = dose: 100.0 mg/kg/injection, schedule: Q01DX005 (ip), vehicle: Klucel (hydroxypropylcellulose) (HPC)
[5] = dose: 100.0 mg/kg/injection, schedule: Q01DX009 (ip), vehicle: saline with Tween-80
[6] = dose: 200.0 mg/kg/injection, schedule: Q04DX003 (ip), vehicle: saline with Tween-80
[7] = dose: 200.0 mg/kg/injection, schedule: Q01DX005 (ip), vehicle: Klucel (hydroxypropylcellulose) (HPC)
[8] = dose: 200.0 mg/kg/injection, schedule: Q01DX005 (ip), vehicle: saline with Tween-80
[9] = dose: 240.0 mg/kg/injection, schedule: Q01DX005 (ip), vehicle: saline with Tween-80
[10] = dose: 200.0 mg/kg/injection, schedule: Q01DX009 (ip), vehicle: saline with Tween-80
[11] = dose: 50.0 mg/kg/injection, schedule: Q01DX005 (ip), vehicle: saline with Tween-80
[12] = dose: 100.0 mg/kg/injection, schedule: Q01DX005 (ip), vehicle: saline with Tween-80
[13] = dose: 25.0 mg/kg/injection, schedule: Q01DX009 (ip), vehicle: saline
[14] = dose: 60.0 mg/kg/injection, schedule: Q01DX005 (ip), vehicle: saline with Tween-80

CCC[CH2][Sn]([CH3])([CH3])[CH2]CC[N+](C)(C)C
survivor count [1]: 3 of 6 | survivor count [2]: 0 of 6 | survivor count [3]: 0 of 6

CN1c2cc3ccccc3cc2N(C)c2cc3ccccc3cc21
survivor count [4]: 6 of 6

O=C(Nc1ccc(C(=O)O)cc1)Oc1ccc(N(CCCl)CCCl)cc1
survivor count [5]: 6 of 6 | survivor count (dose: 150.0 mg/kg/injection, schedule: Q04DX003 (ip), vehicle: saline with Tween-80): 6 of 6 | survivor count [6]: 5 of 6 | survivor count (dose: 400.0 mg/kg/injection, schedule: Q04DX003 (ip), vehicle: saline with Tween-80): 4 of 6

CCC(=O)[O][Bi]([c]1ccccc1)[c]1ccccc1
survivor count [4]: 0 of 6 | T/C [7]: 131 % of control [4 of 6 alive] | survivor count [7]: 0 of 6

O=C(c1ncccc1O)N1CCCCC1
survivor count (dose: 25.0 mg/kg/injection, schedule: Q01DX009 (ip), vehicle: distilled water + Tween-80): 6 of 6

N#Cc1c(C(=O)NN)cc(-c2cccc3ccccc23)[nH]c1=O
survivor count [8]: 3 of 6

Cc1cc2nc3c(C4OCC(O)C4O)nn(-c4ccccc4)c3nc2cc1C (stereo not given)
survivor count (dose: 12.5 mg/kg/injection, schedule: Q01DX005 (ip), vehicle: Klucel (hydroxypropylcellulose) (HPC)): 5 of 5 and 6 of 6 | survivor count (dose: 25.0 mg/kg/injection, schedule: Q01DX005 (ip), vehicle: Klucel (hydroxypropylcellulose) (HPC)): 5 of 5 | survivor count (dose: 50.0 mg/kg/injection, schedule: Q01DX005 (ip), vehicle: Klucel (hydroxypropylcellulose) (HPC)): 6 of 6

CNC(=O)OCc1c(COC(=O)NC)c(-c2cc(F)ccc2F)n2c1CCC2
T/C (dose: 6.25 mg/kg/injection, schedule: Q01DX009 (ip), vehicle: distilled water + Tween-80): 147 % of control | T/C (dose: 12.5 mg/kg/injection, schedule: Q01DX009 (ip), vehicle: distilled water + Tween-80): 142 % of control | survivor count (dose: 50.0 mg/kg/injection, schedule: Q01DX009 (ip), vehicle: distilled water + Tween-80): 6 of 6 (2×) | survivor count (dose: 100.0 mg/kg/injection, schedule: Q01DX009 (ip), vehicle: distilled water + Tween-80): 1 of 6 | survivor count (dose: 200.0 mg/kg/injection, schedule: Q01DX009 (ip), vehicle: distilled water + Tween-80): 0 of 6

CC(=O)OCC12C(=O)CC(C)C3(CC(c4ccoc4)OC3=O)C1(C)CCCC21CO1 (stereo not given) (tested in a mixture with another compound)
survivor count (dose: 192.0 mg/kg/injection, schedule: Q01DX005 (ip), vehicle: Klucel (hydroxypropylcellulose) (HPC)): 5 of 5

CCn1cnc2sc3c(c2c1=O)CCCC3
survivor count [9]: 3 of 6

c1ccc2c(c1)CCc1ccccc1C2NC1=NCCSC1
survivor count [10]: 0 of 6

NOCc1ccccc1
survivor count (dose: 400.0 mg/kg/injection, schedule: Q01DX009 (ip), vehicle: Klucel (hydroxypropylcellulose) (HPC)): 0 of 6

O=C(O)/C(Cl)=C(\Cl)C(=O)Nc1c(Cl)cccc1Cl
survivor count [9]: 0 of 6

O=C(OC1C2CCC2C2CC21)c1ccc([N+](=O)[O-])cc1[N+](=O)[O-] (stereo not given)
survivor count [1]: 4 of 6

CCOC(=O)c1c(-c2ccccc2)csc1NC(=O)CN1CCOCC1
survivor count [11]: 6 of 6 | survivor count [12]: 6 of 6

O=C(N/N=C/c1cc(Br)ccc1[O-])c1ccccc1O.O=C(N/N=C/c1cc(Br)ccc1[O-])c1ccccc1O.[Co+2]
survivor count (dose: 400.0 mg/kg/injection, schedule: Q04DX002 (ip), vehicle: Klucel (hydroxypropylcellulose) (HPC)): 6 of 6

CCOC(=O)c1ccc(N(CC(O)CN)S(=O)(=O)c2ccc(C)cc2)cc1 (stereo not given)
survivor count (dose: 120.0 mg/kg/injection, schedule: Q01DX005 (ip), vehicle: saline with Tween-80): 3 of 6 | survivor count [9]: 0 of 6

CCN(CC)C(C)COC(=O)c1ccc(N)cc1 (stereo not given)
survivor count [13]: 6 of 6

BrCC[N+]12CC[N+](CCBr)(CC1)C2
T/C (dose: 12.5 mg/kg/injection, schedule: Q01DX009 (ip), vehicle: saline): 134 % of control | T/C [13]: 131 and 143 % of control | T/C [1]: 145 % of control | T/C [3]: 129 % of control | T/C (dose: 200.0 mg/kg/injection, schedule: Q04DX003 (ip), vehicle: water): 142 % of control | survivor count (dose: 400.0 mg/kg/injection, schedule: Q01DX009 (ip), vehicle: saline): 0 of 6 | survivor count (dose: 600.0 mg/kg/injection, schedule: Q04DX003 (ip), vehicle: water): 2 of 6

Cc1cc(NN=O)nc(C)c1C#N
T/C (dose: 12.5 mg/kg/injection, schedule: Q01DX009 (ip), vehicle: water): 125 % of control

C1CN1P1(N2CC2)=NP(N2CC2)(N2CC2)=NP(N2CC2)(N2CC2)=NP(N2CC2)(N2CC2)=N1
survivor count (dose: 20.0 mg/kg/injection, schedule: Q01DX009 (ip), vehicle: saline): 6 of 6 | survivor count (dose: 40.0 mg/kg/injection, schedule: Q01DX009 (ip), vehicle: saline): 6 of 6

C/C(COc1ccc([N+](=O)[O-])cc1)=N/NS(=O)(=O)c1cc(Cl)c(Cl)cc1Cl
survivor count [2]: 6 of 6 | survivor count [3]: 6 of 6

O=[Se](O)O
T/C (dose: 3.12 mg/kg/injection, schedule: Q01DX005 (ip), vehicle: water): 126 % of control | survivor count (dose: 6.25 mg/kg/injection, schedule: Q01DX005 (ip), vehicle: water): 3 of 6 | survivor count (dose: 12.5 mg/kg/injection, schedule: Q01DX005 (ip), vehicle: water): 0 of 5 | survivor count (dose: 25.0 mg/kg/injection, schedule: Q01DX005 (ip), vehicle: water): 0 of 5 | survivor count (dose: 50.0 mg/kg/injection, schedule: Q01DX005 (ip), vehicle: water): 0 of 5 | survivor count (dose: 100.0 mg/kg/injection, schedule: Q01DX005 (ip), vehicle: water): 0 of 5 | survivor count (dose: 200.0 mg/kg/injection, schedule: Q01DX005 (ip), vehicle: water): 0 of 5

O=C(NN1C(=O)CSC1c1ccc(Cl)cc1Cl)c1ccncc1 (stereo not given)
survivor count [14]: 6 of 6

N=C1C=CC(=C(c2ccc(N)cc2)c2ccc(N)cc2)C=C1
T/C (dose: 1.56 mg/kg/injection, schedule: Q01DX005 (ip), vehicle: saline with Tween-80): 130 % of control | T/C (dose: 3.12 mg/kg/injection, schedule: Q01DX005 (ip), vehicle: saline with Tween-80): 139 % of control | T/C (dose: 3.12 mg/kg/injection, schedule: Q01DX005 (ip), vehicle: saline): 125 % of control | T/C (dose: 6.25 mg/kg/injection, schedule: Q01DX005 (ip), vehicle: saline): 129 % of control | survivor count (dose: 12.5 mg/kg/injection, schedule: Q01DX005 (ip), vehicle: saline): 5 of 5 | survivor count [11]: 0 of 5 | survivor count [12]: 0 of 5 | survivor count [8]: 0 of 5

CCCCNC(=O)c1cc(NC(=O)c2ccc(C(=O)Nc3cc(C(=O)NCCCC)cc(C4N=CCN4)c3)cc2)cc(C2=NCCN2)c1 (stereo not given)
survivor count [8]: 4 of 6

COc1ccc(-c2nnc(-c3ccc(Cl)cc3)c(=O)[nH]2)cc1
survivor count (dose: 25.0 mg/kg/injection, schedule: Q01DX005 (ip), vehicle: saline with Tween-80): 6 of 6 | survivor count [11]: 6 of 6 | survivor count [12]: 6 of 6 | survivor count [8]: 6 of 6

COC(=O)C(=O)c1c(C(=O)OC)nc2nnc(N)n2c1-c1cccc([N+](=O)[O-])c1
survivor count [14]: 6 of 6 | survivor count [9]: 6 of 6

CC(=O)N1CC(=O)NC1=S
survivor count (dose: 400.0 mg/kg/injection, schedule: Q01DX009 (ip), vehicle: saline with Tween-80): 5 of 6

CC(=O)Nc1ccc(/C=N/NC(=O)c2ccc(C)cc2)cc1
survivor count [5]: 6 of 6

Nc1nc2[nH]ncc2c(=O)[nH]1
survivor count [6]: 2 of 6

CCC[N+](CCC)=c1ccc2nc3c(C)cc(N(CC)CC)cc3sc-2c1
survivor count [13]: 4 of 6

NNP(=O)(Oc1ccccc1)Oc1ccccc1
survivor count (dose: 50.0 mg/kg/injection, schedule: Q01DX009 (ip), vehicle: saline with Tween-80): 3 of 6 | survivor count [5]: 0 of 6 | survivor count [10]: 0 of 6
